For at least one entry, the source does not settle the construct or the ends of the probe. Protein sequences can lack the tags named with them.

The target of series [1] is T1, E. coli RNase P holoenzyme, P RNA G332U (Escherichia coli) (UniProt P0A7Y8).
T1 sequence (looked up, limits assumed): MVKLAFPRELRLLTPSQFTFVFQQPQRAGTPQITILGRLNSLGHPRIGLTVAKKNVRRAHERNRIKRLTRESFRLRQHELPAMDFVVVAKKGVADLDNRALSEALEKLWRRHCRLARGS
Put plainly: single-turnover kinetics by PAGE (K'). To be noted: 17.5 mM Mg2+, indistinguishable from WT, value in Table 2, not in material; 2-aminopurine at position 8 (N-2) as printed, written A; Table 1 appears to swap the Cy3 between 5'Cy3-MD1 and 5'Ap(-2)-MD1; 50 mM MES pH 6, 100 mM NaCl, 17.5 mM MgCl2 (or CaCl2), 0.015% Triton X-100 reduced, 37 C (PAGE single turnover); stopped-flow in similar buffer; recombinant protein; label: 5' Cy3 on strand 1.

Series [2] deals with T2, E. coli RNase P holoenzyme, P RNA A333U (Escherichia coli) (UniProt P0A7Y8).
T2 sequence (looked up, limits assumed): T1 sequence (looked up, limits assumed)
Put plainly: single-turnover kinetics by PAGE (K'). To be noted: 17.5 mM Mg2+, minor effect on K', value in Table 2, not in material; 2-aminopurine at position 8 (N-2) as printed, written A; Table 1 appears to swap the Cy3 between 5'Cy3-MD1 and 5'Ap(-2)-MD1; 50 mM MES pH 6, 100 mM NaCl, 17.5 mM MgCl2 (or CaCl2), 0.015% Triton X-100 reduced, 37 C (PAGE single turnover); stopped-flow in similar buffer; recombinant protein; label: 5' Cy3 on strand 1.

Consider “ACCCAAAAUGGUCCGGGCGGG / CCCGUCCGGACCGCCA [5'Cy3-MD1]”, for which the binding result in series [1] and in series [2] was “binds” each time.

The values are drawn from PMC11221534, “A minimal RNA substrate with dual fluorescent probes enables rapid kinetics and provides insight into bacterial RNase P active site interactions”.
